From PubChem BioAssay AID248 (DTP/NCI, 2004)
The list does not hold the whole screen: it covers a few groups of compounds. Not every dose and run of a compound is shown. T/C: endpoint of the treated group in % of that of the vehicle group. For survival time, the PubChem record calls one and a half times the control and up active, and a quarter to a half above the control has no call in these data; cut-offs in other NCI protocols can differ. Some entries show no survivor count and are marked so; the dose need not have been tolerated. Schedule codes are those of the source, taken here to give the interval after Q, in days (D) or hours (H), and the number of doses after X. Some entries were tested several times; their values stand side by side, smallest first.

System: L1210 leukemia ip in BDF1 mice, survival T/C
Assay: NCI In Vivo Anticancer Drug Screen. Data for tumor model L1210 Leukemia (intraperitoneal) in B6D2F1 (BDF1) mice
Settings: T/C endpoint: mean survival time, higher T/C = longer survival
[1] = dose: 12.5 mg/kg/injection, schedule: Q01DX009 (ip), vehicle: saline
[2] = dose: 25.0 mg/kg/injection, schedule: Q04DX003 (ip), vehicle: saline

For CC(OC(=O)C(O)(c1ccccc1)c1ccccc1)C1CCCCN1C (stereo not drawn), the T/C (dose: 12.5 mg/kg/injection, schedule: Q01DX009 (ip), vehicle: Klucel (hydroxypropylcellulose) (HPC)) was 91 % of control [survivor count not shown], the T/C (dose: 25.0 mg/kg/injection, schedule: Q01DX009 (ip), vehicle: Klucel (hydroxypropylcellulose) (HPC)) was 96 % of control [survivor count not shown] and the T/C (dose: 25.0 mg/kg/injection, schedule: Q04DX003 (ip), vehicle: Klucel (hydroxypropylcellulose) (HPC)) was 94 % of control [survivor count not shown]. For the same molecule, the T/C (dose: 50.0 mg/kg/injection, schedule: Q01DX009 (ip), vehicle: Klucel (hydroxypropylcellulose) (HPC)) was 86 % of control [survivor count not shown], the T/C (dose: 50.0 mg/kg/injection, schedule: Q04DX003 (ip), vehicle: Klucel (hydroxypropylcellulose) (HPC)) was 94 % of control [survivor count not shown] and the T/C (dose: 100.0 mg/kg/injection, schedule: Q01DX009 (ip), vehicle: Klucel (hydroxypropylcellulose) (HPC)) was 86 % of control [survivor count not shown]. The T/C (dose: 100.0 mg/kg/injection, schedule: Q04DX003 (ip), vehicle: Klucel (hydroxypropylcellulose) (HPC)) was 92 % of control [survivor count not shown] and the T/C (dose: 200.0 mg/kg/injection, schedule: Q04DX003 (ip), vehicle: Klucel (hydroxypropylcellulose) (HPC)) was 94 % of control [survivor count not shown].
Cc1cc(C)cc(CN(CCCl)CCCl)c1 was tested, and the T/C (dose: 3.13 mg/kg/injection, schedule: Q01DX009 (ip), vehicle: saline) was 115 [survivor count not shown] and 120 % of control [survivor count not shown], the T/C (dose: 6.25 mg/kg/injection, schedule: Q01DX009 (ip), vehicle: saline) was 122 [survivor count not shown] and 123 % of control [survivor count not shown] and the T/C (dose: 6.25 mg/kg/injection, schedule: Q04DX003 (ip), vehicle: saline) was 100 % of control [survivor count not shown]. For the same molecule, the T/C [1] was 124 % of control [survivor count not shown], the T/C (dose: 12.5 mg/kg/injection, schedule: Q04DX003 (ip), vehicle: saline) was 113 % of control [survivor count not shown] and the T/C [2] was 110 % of control [survivor count not shown].
For C#CCN(CCCl)CCCl, the T/C (dose: 4.0 mg/kg/injection, schedule: Q01DX001 (ip), vehicle: saline) was 117 % of control [survivor count not shown], the T/C (dose: 4.0 mg/kg/injection, schedule: Q01DX015 (ip), vehicle: saline) was 119 % of control [survivor count not shown] and the T/C (dose: 7.1 mg/kg/injection, schedule: Q01DX001 (ip), vehicle: saline) was 109 % of control [survivor count not shown]. For the same molecule, the T/C (dose: 8.0 mg/kg/injection, schedule: Q01DX001 (ip), vehicle: saline) was 114 % of control [survivor count not shown], the T/C (dose: 8.0 mg/kg/injection, schedule: Q01DX015 (ip), vehicle: saline) was 132 % of control [survivor count not shown] and the T/C (dose: 10.67 mg/kg/injection, schedule: Q01DX001 (ip), vehicle: saline) was 114 % of control [survivor count not shown]. The T/C (dose: 16.0 mg/kg/injection, schedule: Q01DX001 (ip), vehicle: saline) was 117 [survivor count not shown], 129 [survivor count not shown], 138 % of control [survivor count not shown], the T/C (dose: 24.0 mg/kg/injection, schedule: Q01DX001 (ip), vehicle: saline) was 143 % of control [survivor count not shown] and the T/C (dose: 32.0 mg/kg/injection, schedule: Q01DX001 (ip), vehicle: saline) was 125 [survivor count not shown] and 132 % of control [survivor count not shown].
ClCCCN(CCCl)CCCl was tested, and the T/C (dose: 3.1 mg/kg/injection, schedule: Q01DX001 (ip), vehicle: saline) was 87 % of control [survivor count not shown].
With CN1CCN(NCCN2CCCC(OC(=O)C(O)(c3ccccc3)c3ccccc3)C2)CC1 (stereo not drawn) the T/C [1] was 100 % of control [survivor count not shown], the T/C (dose: 25.0 mg/kg/injection, schedule: Q01DX009 (ip), vehicle: saline) was 89 [survivor count not shown] and 108 % of control [survivor count not shown] and the T/C [2] was 103 % of control [survivor count not shown]. The T/C (dose: 50.0 mg/kg/injection, schedule: Q01DX009 (ip), vehicle: saline) was 87 [survivor count not shown] and 95 % of control [survivor count not shown], the T/C (dose: 50.0 mg/kg/injection, schedule: Q04DX003 (ip), vehicle: saline) was 100 % of control [survivor count not shown] and the T/C (dose: 100.0 mg/kg/injection, schedule: Q01DX009 (ip), vehicle: saline) was 86 [survivor count not shown] and 91 % of control [survivor count not shown]. For the same molecule, the T/C (dose: 100.0 mg/kg/injection, schedule: Q04DX003 (ip), vehicle: saline) was 100 % of control [survivor count not shown], the T/C (dose: 200.0 mg/kg/injection, schedule: Q01DX009 (ip), vehicle: saline) was 93 [survivor count not shown] and 102 % of control [survivor count not shown] and the T/C (dose: 200.0 mg/kg/injection, schedule: Q04DX003 (ip), vehicle: saline) was 87 % of control [survivor count not shown].
